{"sequences": {"note": "Amino acid sequences for entries named in this document (tags omitted).", "UniProt O95071": "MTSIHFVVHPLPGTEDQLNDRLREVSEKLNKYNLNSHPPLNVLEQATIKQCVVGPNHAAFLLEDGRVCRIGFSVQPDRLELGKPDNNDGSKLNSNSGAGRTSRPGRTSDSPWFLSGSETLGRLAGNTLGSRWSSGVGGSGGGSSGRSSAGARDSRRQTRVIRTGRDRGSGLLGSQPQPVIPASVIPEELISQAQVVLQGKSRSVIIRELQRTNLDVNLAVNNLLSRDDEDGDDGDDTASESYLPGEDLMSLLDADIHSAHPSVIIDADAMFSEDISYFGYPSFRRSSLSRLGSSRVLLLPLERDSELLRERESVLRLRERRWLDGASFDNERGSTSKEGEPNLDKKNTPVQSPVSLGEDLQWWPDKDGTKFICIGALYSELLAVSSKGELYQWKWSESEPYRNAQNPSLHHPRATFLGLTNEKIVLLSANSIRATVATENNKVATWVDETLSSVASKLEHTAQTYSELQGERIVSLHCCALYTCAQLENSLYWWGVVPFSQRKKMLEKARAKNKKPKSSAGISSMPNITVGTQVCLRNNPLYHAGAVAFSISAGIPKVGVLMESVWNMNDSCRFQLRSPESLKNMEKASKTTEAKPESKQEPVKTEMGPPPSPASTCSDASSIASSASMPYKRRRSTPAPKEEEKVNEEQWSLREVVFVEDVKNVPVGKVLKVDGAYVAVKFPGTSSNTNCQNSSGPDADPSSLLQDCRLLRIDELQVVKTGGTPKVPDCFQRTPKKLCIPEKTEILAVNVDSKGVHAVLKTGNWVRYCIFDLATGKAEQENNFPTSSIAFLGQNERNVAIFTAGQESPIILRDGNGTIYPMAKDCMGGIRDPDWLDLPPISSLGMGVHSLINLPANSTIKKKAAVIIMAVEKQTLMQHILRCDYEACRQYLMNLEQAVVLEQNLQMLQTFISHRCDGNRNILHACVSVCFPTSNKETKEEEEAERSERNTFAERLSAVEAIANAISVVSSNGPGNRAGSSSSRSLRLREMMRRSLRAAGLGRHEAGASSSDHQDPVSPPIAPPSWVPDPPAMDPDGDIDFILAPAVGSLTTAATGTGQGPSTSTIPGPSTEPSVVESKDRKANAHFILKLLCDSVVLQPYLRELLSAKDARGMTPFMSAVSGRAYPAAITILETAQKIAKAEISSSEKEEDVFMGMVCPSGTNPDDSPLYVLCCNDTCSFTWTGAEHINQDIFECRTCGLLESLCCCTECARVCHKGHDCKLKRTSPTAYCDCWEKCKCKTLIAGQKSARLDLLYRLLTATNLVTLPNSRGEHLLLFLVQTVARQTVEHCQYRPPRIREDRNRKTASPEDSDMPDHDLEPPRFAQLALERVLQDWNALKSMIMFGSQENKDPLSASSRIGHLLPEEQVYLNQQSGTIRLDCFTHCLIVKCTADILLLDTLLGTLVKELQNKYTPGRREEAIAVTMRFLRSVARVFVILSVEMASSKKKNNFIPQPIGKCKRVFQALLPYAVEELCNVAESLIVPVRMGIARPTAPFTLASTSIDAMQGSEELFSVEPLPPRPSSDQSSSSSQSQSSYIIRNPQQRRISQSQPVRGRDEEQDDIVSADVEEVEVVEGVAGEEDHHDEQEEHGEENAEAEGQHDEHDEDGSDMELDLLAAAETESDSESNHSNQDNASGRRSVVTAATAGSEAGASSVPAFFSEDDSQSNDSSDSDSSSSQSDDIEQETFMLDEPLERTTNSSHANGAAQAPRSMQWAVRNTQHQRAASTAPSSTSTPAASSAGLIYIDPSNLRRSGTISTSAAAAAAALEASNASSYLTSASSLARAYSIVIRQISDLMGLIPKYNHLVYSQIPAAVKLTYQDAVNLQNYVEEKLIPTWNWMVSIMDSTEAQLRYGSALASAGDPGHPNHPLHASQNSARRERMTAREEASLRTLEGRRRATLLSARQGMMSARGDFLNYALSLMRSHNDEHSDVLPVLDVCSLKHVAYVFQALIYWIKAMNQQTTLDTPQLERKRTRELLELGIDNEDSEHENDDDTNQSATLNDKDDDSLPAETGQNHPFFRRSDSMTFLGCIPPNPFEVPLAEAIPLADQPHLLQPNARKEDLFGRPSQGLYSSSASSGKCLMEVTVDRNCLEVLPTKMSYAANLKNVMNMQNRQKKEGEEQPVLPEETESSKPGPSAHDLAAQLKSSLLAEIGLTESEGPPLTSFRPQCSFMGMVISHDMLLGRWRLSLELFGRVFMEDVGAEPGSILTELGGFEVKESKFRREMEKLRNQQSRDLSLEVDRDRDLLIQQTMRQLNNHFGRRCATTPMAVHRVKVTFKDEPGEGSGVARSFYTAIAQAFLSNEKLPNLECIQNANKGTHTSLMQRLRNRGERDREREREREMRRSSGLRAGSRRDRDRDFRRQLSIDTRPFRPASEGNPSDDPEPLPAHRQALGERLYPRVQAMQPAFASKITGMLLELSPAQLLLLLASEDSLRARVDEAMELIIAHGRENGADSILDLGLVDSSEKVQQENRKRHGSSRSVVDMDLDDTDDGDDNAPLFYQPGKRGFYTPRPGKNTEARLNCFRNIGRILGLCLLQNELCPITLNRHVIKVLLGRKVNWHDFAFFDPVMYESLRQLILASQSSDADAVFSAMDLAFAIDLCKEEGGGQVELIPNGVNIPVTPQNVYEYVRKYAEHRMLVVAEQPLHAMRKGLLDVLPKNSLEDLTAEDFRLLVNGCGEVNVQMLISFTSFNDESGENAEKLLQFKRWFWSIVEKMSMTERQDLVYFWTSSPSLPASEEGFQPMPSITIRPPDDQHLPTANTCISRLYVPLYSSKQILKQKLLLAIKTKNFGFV"}, "source": "paper PMC5797633", "key": {"[1]": {"target": "HBZ ectopically expressed in Jurkat-HBZ cells (HBZ-GFP chimeric protein) (HTLV-1) (UniProt P0C746)", "experiment": "co-IP; IP with rabbit anti-HBZ antiserum or control rabbit IgG and Protein G Dynabeads from lysates of T-cell lines (Jurkat-HBZ, SLB-1; 10 μM MG-132 for 20 h, NP-40 lysis buffer); immunoblot for UBR5 and HBZ"}, "[2]": {"target": "HBZ expressed in SLB-1 cells (HTLV-1-transformed T-cell line) (HTLV-1 (expressed in SLB-1)) (UniProt P0C746)", "experiment": "co-IP; IP with rabbit anti-HBZ antiserum or control rabbit IgG and Protein G Dynabeads from lysates of T-cell lines (Jurkat-HBZ, SLB-1; 10 μM MG-132 for 20 h, NP-40 lysis buffer); immunoblot for UBR5 and HBZ"}, "[3]": {"target": "S-tagged HBZ (HTLV-1 basic leucine zipper factor), wild type (HTLV-1) (UniProt P0C746)", "experiment": "pull-down; S-tag affinity pulldown on S beads overnight at 4°C from lysates of transfected HEK293T cells (10 μM MG-132 for 20 h, NP-40 lysis buffer, 25 mM NEM); immunoblot with anti-S-tag and anti-UBR5"}, "[4]": {"target": "S-tagged HBZ AD-BR2-BR1-BR3 (HTLV-1) (UniProt P0C746)", "experiment": "pull-down; S-tag affinity pulldown on S beads overnight at 4°C from lysates of transfected HEK293T cells (10 μM MG-132 for 20 h, NP-40 lysis buffer, 25 mM NEM); immunoblot with anti-S-tag and anti-UBR5"}, "[5]": {"target": "S-tagged HBZ AD-BR2-BR1 (HTLV-1) (UniProt P0C746)", "experiment": "pull-down; S-tag affinity pulldown on S beads overnight at 4°C from lysates of transfected HEK293T cells (10 μM MG-132 for 20 h, NP-40 lysis buffer, 25 mM NEM); immunoblot with anti-S-tag and anti-UBR5"}, "[6]": {"target": "S-tagged HBZ ΔbZIP (HTLV-1) (UniProt P0C746)", "experiment": "pull-down; S-tag affinity pulldown on S beads overnight at 4°C from lysates of transfected HEK293T cells (10 μM MG-132 for 20 h, NP-40 lysis buffer, 25 mM NEM); immunoblot with anti-S-tag and anti-UBR5"}, "[7]": {"target": "Flag-tagged UBR5 (pCMV-Tag2B-EDD) (UniProt O95071)", "experiment": "co-IP"}}, "note": "These are yes or no findings as the source states them, for the method shown. In cells and extracts the contact can be indirect. Some binding calls cover weakened binding; strength is not graded here."}
{"substance": "UBR5 (endogenous in Jurkat-HBZ cells) (from UniProt O95071 1-2799) (enzyme)", "values": [{"measurement": "binding", "setting": "[1]", "value": "binds"}]}
{"substance": "UBR5 (endogenous in SLB-1 cells) (from UniProt O95071 1-2799) (enzyme)", "values": [{"measurement": "binding", "setting": "[2]", "value": "binds"}]}
{"substance": "UBR5, E3 ubiquitin-protein ligase (endogenous in HEK293T) (from UniProt O95071 1-2799) (enzyme)", "values": [{"measurement": "binding", "setting": "[3]", "value": "binds"}]}
{"substance": "Flag-tagged UBR5 (pCMV-Tag2B-EDD) (from UniProt O95071 1-2799) (enzyme)", "values": [{"measurement": "binding", "setting": "[3]", "value": "binds"}, {"measurement": "binding", "setting": "[4]", "value": "binds"}, {"measurement": "binding", "setting": "[5]", "value": "binds"}, {"measurement": "binding", "setting": "[6]", "value": "binds"}]}
{"substance": "S-tagged HBZ (HTLV-1 basic leucine zipper factor), wild type (from UniProt P0C746-2 1-206)", "values": [{"measurement": "binding", "setting": "[7]", "value": "binds"}]}
{"substance": "untagged HBZ (pME-HBZ) (from UniProt P0C746-2 1-206)", "values": [{"measurement": "binding", "setting": "[7]", "value": "binds"}]}
